Results as given in PubChem BioAssay AID504834 (National Center for Advancing Translational Sciences (NCATS), 2011).
Hit rate of the full screen: of about 320,000 compounds, about 22,000 (6.9%) were called active. Inconclusive means that the source gave no clear call. Such entries were picked first, then a sample of the others. Calls come from the whole dose curve; as a rule, active = well fitted inhibition curve with a large enough effect; inconclusive = small, poorly fitted or top-dose-only effect, or another doubt; inactive = no such curve, though single readings can be large or run the other way. Potencies of inconclusive entries are doubtful fits and often do not repeat.

Experiment: Primary qHTS for delayed death inhibitors of the malarial parasite plastid, 96 hour incubation
Conditions: P. falciparum luciferase reporter growth; series mostly up to 28.7 µM; activity change, negative = inhibition: at the top concentration
Method in brief: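 P. falciparum expressing integrated firefly luciferase grown in erythrocytes (2% hematocrit, 0.05% parasitemia final) with compounds for 96 hours at 37 C, 5% CO2. Growth inhibition read as loss of luminescence after adding luciferase detection reagent.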
% is set by controls: 0 for no effect and ±100 for the full control effect; potency is the fitted concentration of half-maximal effect.

SMILES | activity change, negative = inhibition | Potency
Cn1c(=NC(=O)c2ccccc2[N+](=O)[O-])sc2cc(S(C)(=O)=O)ccc21 | inactive: 307% | –
O=P(Oc1ccccc1)(Oc1ccccc1)C(Nc1ccccc1)c1ccccc1 (stereo not given) | – | active: 1.65 µM
CN(C)c1ccc(/C=N/NC(=O)CN2CCN(c3ccc(F)cc3)CC2)cc1 | inactive: 27% | –
CC(C)(Oc1ccc(Cl)cc1)C(=O)NCC1CCCO1 (stereo not given) | inactive: -2.06% | –
O=C(O)CN1C(=O)/C(=C\c2ccccc2OCc2ccc(Cl)cc2Cl)SC1=S | – | inconclusive: 0.0026 µM [inhibitor, full curve, poor fit]
NC(=O)CN1C(=O)NC2(CCCc3ccccc32)C1=O (stereo not given) | – | inconclusive: 20.8 µM [inhibitor, single point]
Nc1scc2c(C(=O)N/N=C/c3ccc(Cl)cc3)nn(-c3ccccc3)c(=O)c12 | – | active: 5.22 µM
COc1ccc2c(c1)nc(SCC(O)c1ccccc1)n2C (stereo not given) | inactive: -16.9% | –
COc1cc(CNCCCSc2nnnn2C)cc(Br)c1OC | – | inconclusive: 0.262 µM [inhibitor, partial curve, poor fit]
CC(C)(C)c1ccc(Cn2nnc3c(=O)[nH]c(C4CCN(C(=O)c5ccco5)CC4)nc32)cc1 | inactive: -1.96% | –
CNS(=O)(=O)c1cc(Cl)ccc1Sc1ccccc1C(=O)O | inactive: 24.4% | –
Cc1cc(C#N)c(C)n1-c1cc(S(=O)(=O)N2CCOCC2)ccc1N1CCCC1 | – | inconclusive: 0.37 µM [inhibitor, full curve, poor fit]
CCOc1ccc(N(C(C)C(=O)N2CCCC2)S(C)(=O)=O)cc1 (stereo not given) | inactive: -102% | –
CCOC(=O)C(C)NC(=O)CCc1nnc2ccc(N3CCC(C)CC3)nn12 (stereo not given) | – | inconclusive: 18.5 µM [inhibitor, single point]
Cc1ccc(C(=O)COC(=O)CNC(=O)c2ccccc2)s1 | inactive: 18.1% | –
O=C(NC1CCCCC1)c1cccnc1C(=O)O | – | inconclusive: 11.7 µM [inhibitor, single point]
Cc1c(C)c2c(OCC(=O)NCC(C)C)cc3c(c2oc1=O)CCC(C)(C)O3 | – | inconclusive: 7.38 µM [inhibitor, partial curve, poor fit]
Cc1ccccc1C(=O)Nc1ccnn1C1CCN(Cc2c(C)n(C)c3ccccc23)CC1 | – | inconclusive: 2.62 µM [inhibitor, full curve, poor fit]
CCOC(=O)Nc1nc(-c2ccc(F)cc2F)cs1 | – | inconclusive: 10.4 µM [inhibitor, partial curve, poor fit]
COc1cc([N+](=O)[O-])ccc1NC(=O)CCCOc1cccc(C)c1C | – | active: 2.94 µM
COc1ccc(CCNC(=O)Cc2ccc(NC3=NC4CS(=O)(=O)CC4S3)cc2)c(OC)c1 (stereo not given) | – | inconclusive: 20.8 µM [inhibitor, single point]
Cc1cc([N+](=O)[O-])cc(/C=N\NC(=O)C2COc3ccccc3O2)c1O (stereo not given) | – | inconclusive: 18.5 µM [inhibitor, single point]
CC(=O)Nc1ccc(Nc2nc(C)c([N+](=O)[O-])c(N(C)c3ccccc3)n2)cc1 | – | inconclusive: 18.5 µM [inhibitor, partial curve, poor fit]

An excerpt of these results, in markdown.

| SMILES | activity change, negative = inhibition | Potency |
| --- | --- | --- |
| Cc1cc(C#N)c(C)n1-c1cc(S(=O)(=O)N2CCOCC2)ccc1N1CCCC1 | – | inconclusive: 0.37 µM [inhibitor, full curve, poor fit] |
| CCOc1ccc(N(C(C)C(=O)N2CCCC2)S(C)(=O)=O)cc1 (stereo not given) | inactive: -102% | – |
| Cc1ccc(C(=O)COC(=O)CNC(=O)c2ccccc2)s1 | inactive: 18.1% | – |

Additional structures

SMILES | activity change, negative = inhibition | Potency
CCN(CC)S(=O)(=O)c1ccc(NC(=O)c2cc(-c3cccs3)nc3ccccc23)cc1 | inactive: -16.2% | –
CC1=CC=CC2=N/C(=N\S(=O)(=O)c3ccc(F)cc3F)c3ccccc3CN12 | – | inconclusive: 18.5 µM [inhibitor, single point]
Cc1cc(NC(=O)CCN2CCN(CCO)CC2)ccc1Br | inactive: 0.0339% | –
COC(=O)c1ccc(CN(c2ccc(C)cc2)S(=O)(=O)c2ccc3c(c2)OCCO3)o1 | – | inconclusive: 1.04 µM [inhibitor, partial curve, poor fit]
Cc1ccc(NC(=S)NC(=O)c2ccccc2)cc1NC(=S)NC(=O)c1ccccc1 | inactive: 95.8% | –
Cc1ccc2[nH]c(=O)c(CN(CCCO)S(=O)(=O)c3cccc4nsnc34)cc2c1 | inactive: 63.8% | –
O=C(CCNS(=O)(=O)c1ccccc1F)N1CCN(S(=O)(=O)c2cccc(F)c2)CC1 | – | inconclusive: 18.5 µM [inhibitor, single point]
COc1ccc2nc(NC3=NCN(CC4CCCO4)CN3)nc(C)c2c1 (stereo not given) | – | inconclusive: 11.7 µM [inhibitor, single point]
O=c1[nH]c(=O)n(Cc2ccco2)c2c1C(C(F)(F)F)(C(F)(F)F)N=C(C1CCCCC1)N2 | inactive: -2.3% | –
Cc1cccc(N2C(=O)CC(Sc3nc(C)c4c(n3)CCCC4)C2=O)c1 (stereo not given) | – | inconclusive: 8.28 µM [inhibitor, partial curve, poor fit]
O=S(=O)(c1ccccc1)N(Cc1cccc(F)c1)c1ccccc1 | – | inconclusive: 18.5 µM [inhibitor, single point]
OCC[C@H]1C[C@@H](O)[C@H](O)[C@@]2(Cc3ccccc3CO2)O1 | inactive: 68% | –
Oc1ccccc1Nc1nc(NCc2ccccc2)c2ccccc2n1 | inactive: 59.6% | –
O=C(COC(=O)c1ccccc1[N+](=O)[O-])NCCCc1ccccc1 | inactive: 28.1% | –
CCOc1cc(/C=N/NC(=O)c2c(-c3ccccc3)noc2C)ccc1O | – | inconclusive: 18.5 µM [inhibitor, single point]
C/C(=N\NC(=O)CSc1nc(C)[nH]c1[N+](=O)[O-])c1ccc(F)cc1 | – | inconclusive: 2.94 µM [inhibitor, full curve, poor fit]
N#Cc1c2ccc(O)cc2n2ccccc12 | inactive: -13.8% | –
CN(c1ccc(OCC(=O)N2CCN(c3ccc(F)cc3)CC2)cc1)S(=O)(=O)c1cccs1 | – | inconclusive: 9.28 µM [inhibitor, single point]
CC(=O)c1ccc(NC(=O)CCCN2C(=O)C(c3ccccc3)Oc3cccnc32)cc1 (stereo not given) | – | inconclusive: 11.7 µM [inhibitor, single point]
Cc1cc(N2C(=O)C(=O)/C(=C(/O)c3ccc(Cl)cc3)C2c2cccc(Br)c2)no1 (stereo not given) | – | inconclusive: 18.5 µM [inhibitor, single point]
CC(C)CCn1c(N2CCCC2)nc2c1c(=O)n(C)c(=O)n2C | – | inconclusive: 11.7 µM [inhibitor, single point]
CCOc1cc(N2CCOCC2)c(OCC)cc1NC(=O)CSc1nccc(C)n1 | – | inconclusive: 13.1 µM [inhibitor, single point]
